For 2 molecules, binding results are on record in article PMC9289542.

Amino acid sequences for entries named in this document (tags omitted). Residues count along the entry.
UniProt O95169, residues 29-186: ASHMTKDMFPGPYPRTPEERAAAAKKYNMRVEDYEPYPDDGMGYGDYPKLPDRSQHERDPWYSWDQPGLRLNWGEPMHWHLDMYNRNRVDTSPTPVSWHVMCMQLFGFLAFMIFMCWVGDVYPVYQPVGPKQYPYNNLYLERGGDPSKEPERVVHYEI

For this assay, the target named is T1, protein disulfide isomerase-associated 2 (human (endogenous in HT-29)) (UniProt Q13087).
T1 sequence: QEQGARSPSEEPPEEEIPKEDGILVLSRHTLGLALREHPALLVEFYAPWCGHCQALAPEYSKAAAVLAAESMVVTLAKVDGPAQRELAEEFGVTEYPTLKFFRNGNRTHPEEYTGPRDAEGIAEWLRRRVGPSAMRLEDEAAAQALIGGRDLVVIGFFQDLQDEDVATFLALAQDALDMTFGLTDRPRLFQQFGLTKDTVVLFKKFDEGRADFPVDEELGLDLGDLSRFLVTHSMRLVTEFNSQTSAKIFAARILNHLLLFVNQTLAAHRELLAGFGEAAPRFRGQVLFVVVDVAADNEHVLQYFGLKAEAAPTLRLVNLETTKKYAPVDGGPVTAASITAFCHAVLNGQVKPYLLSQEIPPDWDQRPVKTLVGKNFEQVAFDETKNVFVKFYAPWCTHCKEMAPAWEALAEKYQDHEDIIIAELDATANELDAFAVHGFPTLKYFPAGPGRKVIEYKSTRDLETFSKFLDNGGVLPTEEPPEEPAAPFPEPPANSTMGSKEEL
In words: co-IP; HT-29 total cell lysate (600 ug protein) immunoprecipitated with anti-PDIA2 antibody or control rabbit IgG at 4 C overnight, protein A/G PLUS-agarose; blotted with the total OXPHOS rodent WB antibody cocktail.

These are yes or no findings as the source states them, for the method shown. Binding seen in cells or lysates may run through a third protein. Some binding calls cover weakened binding; strength is not graded here.

For “CI-20kDa subunit NDUFB8 (from UniProt O95169 29-186)”, the binding entry is “binds”.

B1: CII-30kDa SDHB (protein, UniProt P21912 29-280)
chain: AQTAAATAPRIKKFAIYRWDPDKAGDKPHMQTYEVDLNKCGPMVLDALIKIKNEVDSTLTFRRSCREGICGSCAMNINGGNTLACTRRIDTNLNKVSKIYPLPHMYVIKDLVPDLSNFYAQYKSIEPYLKKKDESQEGKQQYLQSIEEREKLDGLYECILCACCSTSCPSYWWNGDKYLGPAVLMQAYRWMIDSRDDFTEERLAKLQDPFSLYRCHTIMNCTRTCPKGLNPGKAIAEIKKMMATYKEKKASV
Regarding B1, the binding result is on record as “binds”.
